In the assay the target is mouse Plxdc2 entire ectodomain (AVEXIS bait and prey) (mouse) (UniProt Q9DC11). Put plainly: AVEXIS.

Protein sequences, listed by entry. Tags and fused reporters are not part of them. Residues count along the entry.
UniProt Q9DC11, residues 31-455: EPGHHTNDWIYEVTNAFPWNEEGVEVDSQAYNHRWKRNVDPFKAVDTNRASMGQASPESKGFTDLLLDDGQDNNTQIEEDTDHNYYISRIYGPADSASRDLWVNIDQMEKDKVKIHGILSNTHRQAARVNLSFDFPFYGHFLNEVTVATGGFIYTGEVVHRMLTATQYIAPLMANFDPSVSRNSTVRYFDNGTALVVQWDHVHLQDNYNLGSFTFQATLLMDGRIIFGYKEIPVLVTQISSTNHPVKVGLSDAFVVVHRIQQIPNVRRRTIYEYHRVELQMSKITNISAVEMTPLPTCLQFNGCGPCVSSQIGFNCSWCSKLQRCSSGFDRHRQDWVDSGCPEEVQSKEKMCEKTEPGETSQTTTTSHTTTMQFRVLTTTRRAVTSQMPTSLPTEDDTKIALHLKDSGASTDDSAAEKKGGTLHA
UniProt Q80T32, residues 111-305: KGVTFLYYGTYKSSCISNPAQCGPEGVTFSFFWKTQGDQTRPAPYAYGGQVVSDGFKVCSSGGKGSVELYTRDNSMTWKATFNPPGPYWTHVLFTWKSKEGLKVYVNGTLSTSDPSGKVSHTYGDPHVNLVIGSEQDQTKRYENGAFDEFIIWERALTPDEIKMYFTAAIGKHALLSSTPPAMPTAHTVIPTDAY

No constants are given. Whether binding was seen depends on the method and setting. Some binding calls cover weakened binding; strength is not graded here.

Take “pentraxin (PTX) domain of Adgrd1 (truncated ectodomain) (from UniProt Q80T32 111-305) (domain or fragment)”: the binding result is “binds”.
